From ChEMBL document CHEMBL3632574, “Synthesis and evaluation of antibacterial activity of (R)-2-methylheptyl isonicotinate, a putative naturally occurring bioactive agent” (2015)

Tested on: Escherichia coli
Assay: Antibacterial activity against Escherichia coli after 48 hrs
Format: functional

Compound: CC1(C)S[C@@H]2[C@H](NC(=O)[C@H](N)c3ccccc3)C(=O)N2[C@H]1C(=O)O [AMPICILLIN]
- MIC: < 10 µg/mL
